Experimental data taken from patent US8022096B2, “Pyrrolidine derivatives” (National Health Research Institutes, priority 2008, dated 2011).
Some results were stated once for a whole list of compounds, not compound by compound. For at least one compound, name, drawing or mass did not settle the structure.

Sequences of proteins named here, by UniProt entry; tags and fusion partners are left off.
UniProt Q6V1X1, whole entry, species assumed: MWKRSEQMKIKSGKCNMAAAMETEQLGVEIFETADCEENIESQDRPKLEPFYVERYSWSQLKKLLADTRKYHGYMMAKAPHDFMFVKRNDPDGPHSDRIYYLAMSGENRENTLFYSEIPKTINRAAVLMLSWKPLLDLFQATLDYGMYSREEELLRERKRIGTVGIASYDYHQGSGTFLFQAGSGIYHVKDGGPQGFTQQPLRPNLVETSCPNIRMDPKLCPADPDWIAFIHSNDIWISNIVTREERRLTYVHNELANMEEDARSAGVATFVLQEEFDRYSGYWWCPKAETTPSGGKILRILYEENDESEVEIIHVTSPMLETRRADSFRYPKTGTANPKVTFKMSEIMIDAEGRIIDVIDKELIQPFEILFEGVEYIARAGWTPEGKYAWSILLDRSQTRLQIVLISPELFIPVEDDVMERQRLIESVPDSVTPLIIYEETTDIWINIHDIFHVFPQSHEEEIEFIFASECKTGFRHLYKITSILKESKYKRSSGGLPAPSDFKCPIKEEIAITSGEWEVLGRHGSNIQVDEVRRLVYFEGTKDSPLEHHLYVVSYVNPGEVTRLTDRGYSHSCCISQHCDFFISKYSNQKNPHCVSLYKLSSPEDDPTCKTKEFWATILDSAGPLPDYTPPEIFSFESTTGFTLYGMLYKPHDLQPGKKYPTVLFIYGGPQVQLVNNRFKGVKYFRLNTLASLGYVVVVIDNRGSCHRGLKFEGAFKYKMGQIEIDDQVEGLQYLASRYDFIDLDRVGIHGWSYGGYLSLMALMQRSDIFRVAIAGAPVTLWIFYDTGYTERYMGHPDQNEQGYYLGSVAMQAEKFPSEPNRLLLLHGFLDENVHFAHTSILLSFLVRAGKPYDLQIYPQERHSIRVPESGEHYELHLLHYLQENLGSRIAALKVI

Target: DPP-VIII (Homo sapiens, UniProt Q6V1X1)
Experiment: DPP-VIII inhibition assay (Gly-Pro-para-nitroanilide, OD 405 nm)

Molecule	selectivity in inhibiting DPP-VI over inhibiting DPP-VIII
CC(C)(CC(=O)N1C2CCC1CC2)NCC(=O)N1C[C@@H](F)C[C@H]1C#N [compound 20]	high selectivity
CC(C)(CC(=O)N1CC=CCC1)NCC(=O)N1C[C@@H](F)C[C@H]1C#N [compound 9, (2S,4S)-1-{2-[3-(3,6-dihydro-2H-pyridin-1-yl)-1,1-dimehtyl-3-oxo-propylamino]-acetyl}-4-fluoro-pyrrolidine-2-carbonitrile]	high selectivity
(2S,4S)-4-fluoro-1-(2-(4-((R)-3-fluoropyrrolidin-1-yl)-2-methyl-4-oxobutan-2-ylamino)acetyl)pyrrolidine-2-carbonitrile [compound 6]	high selectivity
